Laboratory results reported in paper PMC2650799.
No constants are given. Whether binding was seen depends on the method and setting. In cells and extracts the contact can be indirect. Some entries that bind do so weakly or less than the wild type.

Sequences of proteins named here, by UniProt entry; tags and fusion partners are left off.
UniProt P11103: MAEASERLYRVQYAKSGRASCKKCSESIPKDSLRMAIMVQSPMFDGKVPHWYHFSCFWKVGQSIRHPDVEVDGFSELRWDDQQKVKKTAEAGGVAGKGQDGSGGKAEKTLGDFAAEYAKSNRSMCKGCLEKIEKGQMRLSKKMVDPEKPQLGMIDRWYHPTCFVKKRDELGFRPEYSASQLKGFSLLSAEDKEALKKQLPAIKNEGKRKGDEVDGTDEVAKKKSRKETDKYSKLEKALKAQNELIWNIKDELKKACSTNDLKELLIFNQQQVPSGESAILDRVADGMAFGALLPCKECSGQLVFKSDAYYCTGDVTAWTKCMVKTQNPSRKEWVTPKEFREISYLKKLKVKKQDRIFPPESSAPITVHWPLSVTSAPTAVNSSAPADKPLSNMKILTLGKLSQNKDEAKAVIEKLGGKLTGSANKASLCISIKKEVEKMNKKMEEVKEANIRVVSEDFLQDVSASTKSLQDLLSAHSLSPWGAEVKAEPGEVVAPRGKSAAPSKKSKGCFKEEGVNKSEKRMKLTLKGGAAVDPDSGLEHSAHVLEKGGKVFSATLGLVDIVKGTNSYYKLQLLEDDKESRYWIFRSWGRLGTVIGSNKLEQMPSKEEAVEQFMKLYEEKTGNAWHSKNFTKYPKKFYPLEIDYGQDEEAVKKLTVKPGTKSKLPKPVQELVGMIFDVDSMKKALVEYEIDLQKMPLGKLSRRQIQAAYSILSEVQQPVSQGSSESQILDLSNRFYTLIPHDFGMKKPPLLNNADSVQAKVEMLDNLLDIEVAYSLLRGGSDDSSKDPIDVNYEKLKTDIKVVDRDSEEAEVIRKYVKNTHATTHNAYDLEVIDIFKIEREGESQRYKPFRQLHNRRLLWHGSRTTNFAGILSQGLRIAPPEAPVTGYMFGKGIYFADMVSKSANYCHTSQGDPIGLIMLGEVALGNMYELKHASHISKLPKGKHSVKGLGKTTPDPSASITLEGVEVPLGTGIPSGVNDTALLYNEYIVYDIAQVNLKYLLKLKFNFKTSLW
UniProt P13864: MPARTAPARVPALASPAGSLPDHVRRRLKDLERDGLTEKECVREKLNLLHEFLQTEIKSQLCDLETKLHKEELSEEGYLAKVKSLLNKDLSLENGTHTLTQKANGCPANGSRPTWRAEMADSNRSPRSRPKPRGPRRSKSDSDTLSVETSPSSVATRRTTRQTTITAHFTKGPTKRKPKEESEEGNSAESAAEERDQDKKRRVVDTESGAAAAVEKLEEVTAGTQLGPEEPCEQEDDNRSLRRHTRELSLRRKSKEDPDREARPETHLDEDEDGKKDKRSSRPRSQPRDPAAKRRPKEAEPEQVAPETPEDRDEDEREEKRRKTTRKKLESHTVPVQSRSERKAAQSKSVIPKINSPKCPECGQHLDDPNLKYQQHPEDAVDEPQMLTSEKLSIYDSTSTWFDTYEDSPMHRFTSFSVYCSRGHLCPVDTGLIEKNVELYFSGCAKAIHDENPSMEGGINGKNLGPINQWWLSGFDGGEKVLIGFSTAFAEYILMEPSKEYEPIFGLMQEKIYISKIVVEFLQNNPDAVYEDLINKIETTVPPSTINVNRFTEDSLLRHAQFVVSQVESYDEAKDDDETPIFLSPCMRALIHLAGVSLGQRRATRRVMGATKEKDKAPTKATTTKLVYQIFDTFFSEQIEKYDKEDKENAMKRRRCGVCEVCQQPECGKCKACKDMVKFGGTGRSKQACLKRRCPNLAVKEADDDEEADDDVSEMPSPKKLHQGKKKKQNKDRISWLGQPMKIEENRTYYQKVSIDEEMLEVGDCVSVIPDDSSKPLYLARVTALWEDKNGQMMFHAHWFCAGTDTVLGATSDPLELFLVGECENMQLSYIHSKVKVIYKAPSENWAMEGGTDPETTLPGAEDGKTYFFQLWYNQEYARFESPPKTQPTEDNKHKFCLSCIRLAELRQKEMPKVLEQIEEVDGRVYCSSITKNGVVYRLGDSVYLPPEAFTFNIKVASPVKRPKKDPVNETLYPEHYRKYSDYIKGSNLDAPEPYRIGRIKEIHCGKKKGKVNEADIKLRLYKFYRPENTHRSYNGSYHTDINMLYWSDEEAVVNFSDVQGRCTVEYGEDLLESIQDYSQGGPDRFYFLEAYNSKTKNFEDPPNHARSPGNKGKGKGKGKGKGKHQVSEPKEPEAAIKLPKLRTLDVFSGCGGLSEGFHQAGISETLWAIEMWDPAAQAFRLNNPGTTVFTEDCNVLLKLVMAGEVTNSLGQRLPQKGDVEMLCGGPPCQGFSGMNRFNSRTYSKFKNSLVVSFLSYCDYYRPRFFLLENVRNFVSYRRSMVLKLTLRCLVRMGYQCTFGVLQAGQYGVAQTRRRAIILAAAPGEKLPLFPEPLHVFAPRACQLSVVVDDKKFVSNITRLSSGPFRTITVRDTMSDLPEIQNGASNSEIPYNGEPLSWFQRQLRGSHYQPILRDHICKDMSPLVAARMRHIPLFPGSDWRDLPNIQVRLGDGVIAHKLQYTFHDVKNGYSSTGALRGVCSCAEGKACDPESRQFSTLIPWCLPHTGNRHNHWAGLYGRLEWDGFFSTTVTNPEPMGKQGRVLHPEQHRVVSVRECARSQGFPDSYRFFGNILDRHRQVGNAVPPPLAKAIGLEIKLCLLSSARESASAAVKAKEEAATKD

Target: poly(ADP-ribose) polymerase 1 (Parp1) (mouse (endogenous in L929)) (UniProt P11103)
Assay: co-IP; nuclear lysates of L929 cells (1.5 mg) in IP buffer (50 mM Tris-HCl pH 7.5, 5 mM EDTA, 300 mM NaCl, 1% Nonidet P-40, 1% Triton X-100); immunoprecipitated with anti-PARP-1 (rabbit polyclonal) or anti-Dnmt1 (mouse monoclonal) at 4°C, protein A- or G-agarose; western blot, anti-PAR used to detect polymers

binding: binds
Substance: DNA methyltransferase 1 (Dnmt1) (from UniProt P13864 1-1620) (enzyme)
